Where “and” joins values, the source holds several entries; their conditions need not be identical. Equal values may be shown once. The list shows a part of the results. Single wells; the ratio to wells without odorant was worked out here, and repeats agree poorly.
Legend:
Experiment in all cases: odorant receptor activation (CRE luciferase / Renilla) (fold of no-odor wells); higher = more activation
Conditions in all cases: 100 µM
OR52H1 clone 1702 = tested on: OR52H1 clone 1702
OR52I1 clone 1521 = tested on: OR52I1 clone 1521
OR52I2 T132M clone 1324 = tested on: OR52I2 T132M clone 1324
OR52K1 clone 1163 = tested on: OR52K1 clone 1163
OR52K2 clone 1211 = tested on: OR52K2 clone 1211
[1] = tested on: OR52L1 D73N/C125R/C146R/K168T/W282R clone 1116
OR52L2 R169W clone 1117 = tested on: OR52L2 R169W clone 1117
OR52M1 clone 1143 = tested on: OR52M1 clone 1143
OR52N1 clone 1191 = tested on: OR52N1 clone 1191
OR52N2 M228T clone 1569 = tested on: OR52N2 M228T clone 1569

SMILES	odorant receptor activation (OR52H1 clone 1702)	odorant receptor activation (OR52I1 clone 1521)	odorant receptor activation (OR52I2 T132M clone 1324)	odorant receptor activation (OR52K1 clone 1163)	odorant receptor activation (OR52K2 clone 1211)	odorant receptor activation [1]	odorant receptor activation (OR52L2 R169W clone 1117)	odorant receptor activation (OR52M1 clone 1143)	odorant receptor activation (OR52N1 clone 1191)	odorant receptor activation (OR52N2 M228T clone 1569)
COc1ccccc1O [guaiacol]	1.05	0.821 and 1.28	0.772 and 0.755	0.965	0.837	0.667	1.45	0.717	0.978	1.1
c1ccc(Oc2ccccc2)cc1 [diphenyl ether]	0.674	1.28	1.13	0.993	1.02	1.01	1.03	1.13	0.939	0.799
CCCCCCCCC=O [nonyl aldehyde]	1.17	0.917	0.979	0.943	1.12	1.01	1.18	1.05	0.973	0.658
CCCCCCCOC(C)=O [heptyl acetate]	0.994	0.957 and 1.72	0.871 and 1.25	1.24	0.732	0.456	2.37	1.03	1.06	0.886
CC(C)C(=O)O [isobutyric acid]	1.1	1.11 and 1.07	1.05 and 0.768	0.928	0.751	0.615	1.32	0.825	0.969	0.92
CC(C)=CCCC(C)=CC=O [citral]	1.41	1.03	1.17	1.05	1.14	1.08	1.19	1.16	1.02	1.3
CC(=O)OCC=C(C)CCC=C(C)C [geranyl acetate]	1.4	0.985 and 1.77	0.972 and 1.01	1.15	0.987	1.38	1.41	0.871	1.08	1.36
O=C1CCCCCCCCCCCCCCO1 [pentadecalactone]	0.866	1.06	0.903	0.794	0.835	0.859	0.773	0.763	0.643	0.745
CCCCCCCCCC=O [decyl aldehyde]	0.959	1.3	1.83	1.16	1.24	1.48	1.22	1.56	1.04	0.772
COc1cc(C=O)ccc1O [vanillin]	1.21	0.791	0.866	1.06	1.1	0.93	0.754	0.951	0.902	0.819
COC(=O)c1ccccc1O [methyl salicylate]	1.2	0.933	0.964	0.808	0.888	1.1	1.1	0.877	0.984	0.957
CCCCCCCC=CC=O [2-decenal]	1.11	1.45	0.689	1.41	0.657	26.7	17.4	1.33	1.41	1.58
C=CCSCC=C [diallyl sulfide]	0.709	1.26	1.32	0.794	1.07	1.09	1.02	1.03	0.948	0.919
CC(C)CCC(=O)O [4-methylvaleric acid]	0.743	1.04	1.17	1.24	0.845	15.1	10.4	0.992	1.27	0.953
CC=Cc1ccc(O)c(OC)c1 [isoeugenol]	1.92	1.06 and 2.19	1.16 and 1.36	1.18	1.14	0.618	2.31	1.15	0.931	4.91
COc1cc(C)ccc1O [2-methoxy-4-methylphenol]	0.746	0.854	1.14	1.54	0.839	15.8	11.2	1.49	3.05	0.875
C=CC(C)(O)CCC=C(C)C (stereo not given) [linalool]	1.42	0.849	0.954	0.917	1	1.06	1.19	0.986	1.12	0.993
CC1CCC(C(C)C)C(O)C1 (single isomer, unassigned; (-)) [(-)-menthol]	0.866	2.33	0.999	1.16	0.653	25.5	19.3	1.01	1.65	0.773
O=C1CCCCCCCCCCCC(=O)OCCO1 [ethylene brassylate]	1.06	1.52	1.51	2.01	1.63	1.68	2.04	1.65	1.72	1.69
CCCCCC(=O)O [caproic acid]	1.11	0.805	1.05	0.834	0.981	1.09	0.957	0.925	1.01	0.886
C=C(C)C1CC=C(C)C(=O)C1 (stereo not given) [r-carvone]	0.998	0.96	0.94	0.931	0.911	0.908	0.676	1.12	0.877	0.885
CCC1(O)C2(C)CCC(C2)C1(C)C (stereo not given) [2-ethylfenchol]	0.827	1.07	1.03	1.31	0.985	30.7	26.9	1.28	1.14	0.77
CCCC(=O)O [butyric acid]	1.34	0.773	1.11	0.938	0.868	1.3	1.18	0.908	1.1	0.731
C=CCc1ccc(OC(C)=O)c(OC)c1 [eugenol acetate]	2.03	1.66	1.73	1.54	1.5	2.1	2.15	2.28	1.73	2.1
CC1=CCC(C(C)(C)O)CC1 (stereo not given) [terpineol]	1.02	0.943	1.01	1.21	1.13	0.976	1	1.17	0.977	0.603
CC/C=C\CCO [cis-3-hexen-1-ol]	1.31	0.753	1.12	0.839	0.943	0.882	0.922	0.778	0.99	1.01

Two entries drawn at random from the list so far:
SMILES	odorant receptor activation (OR52H1 clone 1702)	odorant receptor activation (OR52I1 clone 1521)	odorant receptor activation (OR52I2 T132M clone 1324)	odorant receptor activation (OR52K1 clone 1163)	odorant receptor activation (OR52K2 clone 1211)	odorant receptor activation [1]	odorant receptor activation (OR52L2 R169W clone 1117)	odorant receptor activation (OR52M1 clone 1143)	odorant receptor activation (OR52N1 clone 1191)	odorant receptor activation (OR52N2 M228T clone 1569)
CC=Cc1ccc(O)c(OC)c1 [isoeugenol]	1.92	1.06 and 2.19	1.16 and 1.36	1.18	1.14	0.618	2.31	1.15	0.931	4.91
c1ccc(Oc2ccccc2)cc1 [diphenyl ether]	0.674	1.28	1.13	0.993	1.02	1.01	1.03	1.13	0.939	0.799

— the odorant receptor screen of Mainland et al. (2015)
